Values from PubChem BioAssay AID652259 (Drosophila RNAi Screening Center, 2013).
Test: 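Identify new Wingless signalling regulators in fly cells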 (primary screen). Cell system: Drosophila clone 8 imaginal disc epithelial cells. Reagent: long dsRNA against Drosophila genes. Treatment: pathway stimulated by co-transfected Wingless expression plasmid. Detection: 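Dual luciferase reads per well after Wingless plasmid stimulation: reporter firefly light and Renilla control light; activity is firefly divided by Renilla, a ratio not deposited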. Reading the numbers: firefly reporter light: higher = more Wg reporter light, before normalisation; Renilla control light: higher = more transfected or surviving cells. Hit rule: 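a knock-down is a candidate when at least two out of four statistical tests show it departing from its plate mean; one test alone signals a weak candidate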. Calls: active = candidate regulator (raises or lowers reporter); inactive = not a candidate.
The deposit covers about 22,000 reagents; this is an unselected part of those that have a named target and a result. Over the whole deposit, 233 (1.1%) got an active call. 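Light values are raw, unnormalised plate reads; the ratio scores behind the reporter calls were not deposited.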 Reagents against one gene are numbered here. Not given: the amount of reagent, the time to read-out, the dose of the treatment.

MsrA (Methionine sulfoxide reductase A) gave firefly reporter light, replicate 1 = 8841; Renilla control light, replicate 1 = 3553; inactive. With knock-down of CG14739 the results were firefly reporter light, replicate 1 = 20612; Renilla control light, replicate 1 = 6342; inactive. With knock-down of Zyx (Zyxin) the results were firefly reporter light, replicate 1 = 3019; Renilla control light, replicate 1 = 1464; inactive. For CG4669, the values are firefly reporter light, replicate 1 = 5040; Renilla control light, replicate 1 = 1472; inactive. For CG15040 #1, the entry reads firefly reporter light, replicate 1 = 3445; Renilla control light, replicate 1 = 1431; inactive. With knock-down of CG15040 #2 the results were firefly reporter light, replicate 1 = 3.72e5; firefly reporter light, replicate 2 = 4.53e5; Renilla control light, replicate 1 = 1.03e5; Renilla control light, replicate 2 = 83683; inactive.

CG9945 gave firefly reporter light, replicate 1 = 7602; Renilla control light, replicate 1 = 3344; inactive.

No new results follow: an excerpt of the list.
Zyx (Zyxin) — firefly reporter light, replicate 1: 3019; Renilla control light, replicate 1: 1464; Outcome: inactive
CG4669 — firefly reporter light, replicate 1: 5040; Renilla control light, replicate 1: 1472; Outcome: inactive

The list goes on.
Against CG12480, the values are firefly reporter light, replicate 1 = 26464; Renilla control light, replicate 1 = 10858; inactive. With knock-down of CG43292 #1 the results were firefly reporter light, replicate 1 = 3402; Renilla control light, replicate 1 = 840; inactive. For CG43292 #2, the values are firefly reporter light, replicate 1 = 7.48e5; firefly reporter light, replicate 2 = 7.58e5; Renilla control light, replicate 1 = 3.58e5; Renilla control light, replicate 2 = 3.23e5; inactive. Silencing of CG11570 came out at: firefly reporter light, replicate 1 = 8401; Renilla control light, replicate 1 = 3469; inactive. Silencing of CG13716 #1 resulted in: firefly reporter light, replicate 1 = 2483; firefly reporter light, replicate 2 = 11961; Renilla control light, replicate 1 = 1799; Renilla control light, replicate 2 = 4945; inactive. CG13716 #2 showed firefly reporter light, replicate 1 = 4.63e5; firefly reporter light, replicate 2 = 5.61e5; Renilla control light, replicate 1 = 2.00e5; Renilla control light, replicate 2 = 2.58e5; inactive.
